No constants are given. Whether binding was seen depends on the method and setting. Binding seen in cells or lysates may run through a third protein. Some binding calls cover weakened binding; strength is not graded here.

The chains behind the UniProt entries cited, without tags or fusion partners.
UniProt P11798: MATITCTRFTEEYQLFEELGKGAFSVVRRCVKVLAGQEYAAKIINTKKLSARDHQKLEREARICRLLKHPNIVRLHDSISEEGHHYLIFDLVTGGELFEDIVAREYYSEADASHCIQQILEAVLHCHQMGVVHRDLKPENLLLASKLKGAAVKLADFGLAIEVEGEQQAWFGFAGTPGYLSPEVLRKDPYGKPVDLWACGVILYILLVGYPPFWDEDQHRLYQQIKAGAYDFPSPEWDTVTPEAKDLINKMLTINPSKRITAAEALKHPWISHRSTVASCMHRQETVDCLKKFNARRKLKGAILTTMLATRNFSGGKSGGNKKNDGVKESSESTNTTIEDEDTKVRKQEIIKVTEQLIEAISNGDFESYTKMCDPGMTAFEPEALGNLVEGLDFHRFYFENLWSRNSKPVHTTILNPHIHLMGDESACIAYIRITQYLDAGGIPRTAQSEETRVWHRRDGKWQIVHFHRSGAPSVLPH

Experimental findings from paper PMC10800070 are described below.

In this test the target is T1, Rasal1 (mouse (endogenous in mouse hippocampus)) (UniProt Q9Z268).
T1 sequence: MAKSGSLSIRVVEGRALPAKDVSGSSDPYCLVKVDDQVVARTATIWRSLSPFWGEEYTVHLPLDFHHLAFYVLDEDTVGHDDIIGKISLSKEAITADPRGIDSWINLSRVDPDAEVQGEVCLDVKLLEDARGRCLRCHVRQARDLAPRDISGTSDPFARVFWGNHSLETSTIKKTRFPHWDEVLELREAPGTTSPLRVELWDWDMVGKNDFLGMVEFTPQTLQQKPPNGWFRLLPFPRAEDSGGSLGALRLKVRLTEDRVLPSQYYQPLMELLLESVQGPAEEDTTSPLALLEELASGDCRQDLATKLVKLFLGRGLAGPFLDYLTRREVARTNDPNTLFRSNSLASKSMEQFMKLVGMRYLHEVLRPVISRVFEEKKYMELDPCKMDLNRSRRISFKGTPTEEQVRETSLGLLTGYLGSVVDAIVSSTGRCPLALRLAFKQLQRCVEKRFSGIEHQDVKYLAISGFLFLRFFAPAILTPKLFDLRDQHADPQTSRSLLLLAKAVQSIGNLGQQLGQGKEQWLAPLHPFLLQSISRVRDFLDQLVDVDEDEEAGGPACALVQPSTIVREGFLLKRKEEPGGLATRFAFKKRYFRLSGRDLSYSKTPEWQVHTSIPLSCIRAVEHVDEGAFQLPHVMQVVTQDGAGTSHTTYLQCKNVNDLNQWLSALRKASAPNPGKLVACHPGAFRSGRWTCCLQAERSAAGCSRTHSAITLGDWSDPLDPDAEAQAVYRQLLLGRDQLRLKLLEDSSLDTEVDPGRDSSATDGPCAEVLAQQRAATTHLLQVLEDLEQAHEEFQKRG
Description: co-IP; hippocampal protein (300 μg) incubated with Protein A/G Plus-Agarose beads pretreated with Rasal1 antibody (GenScript) at 4 °C; washed five times with RIPA buffer; Western blot.

Turning to “CaMKII-α (from UniProt P11798 1-478) (enzyme)”, the binding result was “binds”.
